Results published in US10104891B2 (priority 2014, dated 2018).
Some entries share one result that the patent states for a list of compounds.

System: Pythium graminicola
Assay: Test 4: control effect against rice damping-off by the Pythium fungus (soil lavage)
Assay type: in vivo
Details: 1,000 ppm, 2.5 ml test suspension drenched on contaminated soil, rice (koshihikari)
Description: A 10% wettable powder created according to the Pharmaceutical Formulation Example 1 was diluted with a Tween20 solution prepared to a concentration of 1/5000, then the compound of formula [1] was prepared to a concentration of 4 ppm. Further, the compound of formula [1] in Test 4 was adjusted to a concentration of 1,000 ppm.
<Test 4 Test of Control Effect Against Rice Damping-Off by the Pythium Fungus (Soil Lavage)>
Distilled water was added to the flora of Pythium graminicola cultured in bentoglass seed culture and stirred with a mixer, and adjusted the contaminated soil to 5 g of bacteria against 1 kg of soil.
In a cell tray having 31×31 mm^2 per cell, 20 ml of the contaminated soil was filled in each cell, and 3 seeds of rice chaff that has been forced to sprout (Species: koshihikari) were seeded, and 5 ml of soil was added for covering, then 2.5 ml of test suspension was drenched, and the seeds were incubated in a moist chamber adjusted to 28° C. for 72 hr to induce sprouting. Then, in a low temperature room of 5° C., the onset of disease was induced for 2 days, then the disease was nurtured for 14 days in a room of 25° C.
The soil was washed, and the apoptosis strain, growth restrained strain, and a healthy strain were measured and the onset rate was calculated by the following formula. […]

Compound	control value
Cc1cc(C(F)(F)F)nn1CC(=O)N1CCC(c2nc(C3OCc4cc5ccccc5cc4CO3)cs2)CC1 [Compound 1-10, 4-[4-(1,5-dihydro-3H-2,4-naphthodioxepin-3-yl)-2-thiazolyl]-1-[2-[5-methyl-3-(trifluoromethyl)-1H-pyrazole-1-yl]acetyl]piperidine]	≥ 90
O=C(Cn1nc(C(F)F)cc1C(F)F)N1CCC(c2nc(C3OCc4cc5c(cc4CO3)CCC5)cs2)CC1 [Compound 1-61, 4-[4-(1,5,7,8,9-pentahydro-3H-2,4-indenodioxepin-3-yl)-2-thiazolyl]-1-[2-[3,5-bis(difluoromethyl)-1H-pyrazole-1-yl]acetyl]piperidine]	≥ 90
